Source: the supplement of paper PMC10849652
The other results are listed elsewhere or left out.

Sequences of proteins named here, by UniProt entry; tags and fusion partners are left off. A change or cut given only in a name is not applied to a line headed by its entry.
UniProt Q9UBT3: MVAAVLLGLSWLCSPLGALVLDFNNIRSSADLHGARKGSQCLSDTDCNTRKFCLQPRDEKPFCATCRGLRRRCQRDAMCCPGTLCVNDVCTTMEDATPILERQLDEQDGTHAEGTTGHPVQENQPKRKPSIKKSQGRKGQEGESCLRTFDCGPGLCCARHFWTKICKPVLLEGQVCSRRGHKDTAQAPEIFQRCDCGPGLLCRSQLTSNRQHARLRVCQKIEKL
UniProt Q08495: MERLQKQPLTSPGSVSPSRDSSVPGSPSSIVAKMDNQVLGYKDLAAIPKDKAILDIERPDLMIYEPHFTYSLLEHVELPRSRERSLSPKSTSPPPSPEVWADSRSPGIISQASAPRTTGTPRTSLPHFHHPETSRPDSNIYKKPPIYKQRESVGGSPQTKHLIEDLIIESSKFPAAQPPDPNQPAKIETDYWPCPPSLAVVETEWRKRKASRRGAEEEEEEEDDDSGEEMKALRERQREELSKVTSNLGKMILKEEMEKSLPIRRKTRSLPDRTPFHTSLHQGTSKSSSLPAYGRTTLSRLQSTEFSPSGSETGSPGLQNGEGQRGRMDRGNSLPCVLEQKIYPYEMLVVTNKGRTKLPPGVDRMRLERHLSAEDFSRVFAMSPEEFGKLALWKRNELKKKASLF
UniProt Q8N5I4: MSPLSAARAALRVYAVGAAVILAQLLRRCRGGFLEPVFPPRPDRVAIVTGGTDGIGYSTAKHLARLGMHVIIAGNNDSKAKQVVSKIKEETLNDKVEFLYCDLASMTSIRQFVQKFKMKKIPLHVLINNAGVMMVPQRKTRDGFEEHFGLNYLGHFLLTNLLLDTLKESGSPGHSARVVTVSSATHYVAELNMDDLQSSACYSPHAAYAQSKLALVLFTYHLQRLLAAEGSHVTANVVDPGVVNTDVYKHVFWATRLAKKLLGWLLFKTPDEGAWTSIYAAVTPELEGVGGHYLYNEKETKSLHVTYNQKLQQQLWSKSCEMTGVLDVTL
UniProt Q9Y222: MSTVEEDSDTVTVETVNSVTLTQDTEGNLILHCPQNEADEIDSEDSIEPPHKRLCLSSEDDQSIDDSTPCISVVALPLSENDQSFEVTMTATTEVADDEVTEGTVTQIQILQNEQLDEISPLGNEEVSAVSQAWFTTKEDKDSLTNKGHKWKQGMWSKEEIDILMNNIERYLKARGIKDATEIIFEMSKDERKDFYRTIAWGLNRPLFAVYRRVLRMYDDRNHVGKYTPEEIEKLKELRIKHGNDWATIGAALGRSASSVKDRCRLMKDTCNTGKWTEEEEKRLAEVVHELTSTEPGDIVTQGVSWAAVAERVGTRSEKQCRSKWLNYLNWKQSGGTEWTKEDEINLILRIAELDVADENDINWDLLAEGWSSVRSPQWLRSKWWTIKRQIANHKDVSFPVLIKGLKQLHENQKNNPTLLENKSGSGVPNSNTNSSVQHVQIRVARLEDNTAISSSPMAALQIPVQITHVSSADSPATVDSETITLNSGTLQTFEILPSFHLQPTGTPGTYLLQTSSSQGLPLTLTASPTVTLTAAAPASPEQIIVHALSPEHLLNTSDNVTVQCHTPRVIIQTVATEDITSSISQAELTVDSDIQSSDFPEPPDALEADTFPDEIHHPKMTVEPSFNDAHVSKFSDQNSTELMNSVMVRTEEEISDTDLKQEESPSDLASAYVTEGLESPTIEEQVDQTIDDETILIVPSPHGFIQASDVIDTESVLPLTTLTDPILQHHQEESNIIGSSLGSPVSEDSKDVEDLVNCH
UniProt Q96QB1: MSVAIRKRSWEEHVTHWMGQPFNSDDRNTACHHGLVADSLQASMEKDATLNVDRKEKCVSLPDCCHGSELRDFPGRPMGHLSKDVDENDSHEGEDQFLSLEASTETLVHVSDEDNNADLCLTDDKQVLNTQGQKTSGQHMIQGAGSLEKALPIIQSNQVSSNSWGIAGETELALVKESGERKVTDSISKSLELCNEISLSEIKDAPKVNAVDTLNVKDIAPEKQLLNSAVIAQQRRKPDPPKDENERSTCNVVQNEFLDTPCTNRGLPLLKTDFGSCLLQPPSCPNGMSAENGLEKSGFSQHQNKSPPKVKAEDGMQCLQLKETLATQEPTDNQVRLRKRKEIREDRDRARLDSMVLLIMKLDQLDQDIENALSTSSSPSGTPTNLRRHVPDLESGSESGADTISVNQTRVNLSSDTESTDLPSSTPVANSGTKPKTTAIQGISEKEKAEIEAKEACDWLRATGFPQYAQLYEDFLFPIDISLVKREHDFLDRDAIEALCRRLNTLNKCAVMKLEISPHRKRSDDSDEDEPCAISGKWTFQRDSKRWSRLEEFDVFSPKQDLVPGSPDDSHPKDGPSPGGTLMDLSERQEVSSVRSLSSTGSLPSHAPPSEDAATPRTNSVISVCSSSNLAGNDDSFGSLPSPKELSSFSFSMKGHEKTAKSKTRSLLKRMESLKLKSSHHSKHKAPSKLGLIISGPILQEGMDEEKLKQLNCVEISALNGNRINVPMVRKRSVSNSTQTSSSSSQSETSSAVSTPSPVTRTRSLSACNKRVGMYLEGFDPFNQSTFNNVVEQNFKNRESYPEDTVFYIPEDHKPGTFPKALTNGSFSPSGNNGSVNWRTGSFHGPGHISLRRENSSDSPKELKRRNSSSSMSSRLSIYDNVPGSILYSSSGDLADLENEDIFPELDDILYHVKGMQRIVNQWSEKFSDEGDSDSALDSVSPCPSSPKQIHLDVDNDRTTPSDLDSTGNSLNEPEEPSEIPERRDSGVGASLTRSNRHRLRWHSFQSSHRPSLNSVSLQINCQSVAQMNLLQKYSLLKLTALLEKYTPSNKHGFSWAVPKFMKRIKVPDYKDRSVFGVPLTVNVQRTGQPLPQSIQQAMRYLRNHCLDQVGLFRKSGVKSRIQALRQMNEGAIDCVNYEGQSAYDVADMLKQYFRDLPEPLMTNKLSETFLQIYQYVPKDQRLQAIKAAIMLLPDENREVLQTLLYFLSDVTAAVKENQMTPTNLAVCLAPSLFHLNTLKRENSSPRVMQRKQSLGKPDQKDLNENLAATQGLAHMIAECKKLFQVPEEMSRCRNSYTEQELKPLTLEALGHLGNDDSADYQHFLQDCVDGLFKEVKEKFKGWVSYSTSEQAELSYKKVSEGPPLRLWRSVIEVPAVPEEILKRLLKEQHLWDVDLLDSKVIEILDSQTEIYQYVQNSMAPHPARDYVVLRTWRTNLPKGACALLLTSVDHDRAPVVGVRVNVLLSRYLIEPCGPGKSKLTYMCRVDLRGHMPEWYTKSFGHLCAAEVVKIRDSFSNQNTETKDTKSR
UniProt Q8IY37: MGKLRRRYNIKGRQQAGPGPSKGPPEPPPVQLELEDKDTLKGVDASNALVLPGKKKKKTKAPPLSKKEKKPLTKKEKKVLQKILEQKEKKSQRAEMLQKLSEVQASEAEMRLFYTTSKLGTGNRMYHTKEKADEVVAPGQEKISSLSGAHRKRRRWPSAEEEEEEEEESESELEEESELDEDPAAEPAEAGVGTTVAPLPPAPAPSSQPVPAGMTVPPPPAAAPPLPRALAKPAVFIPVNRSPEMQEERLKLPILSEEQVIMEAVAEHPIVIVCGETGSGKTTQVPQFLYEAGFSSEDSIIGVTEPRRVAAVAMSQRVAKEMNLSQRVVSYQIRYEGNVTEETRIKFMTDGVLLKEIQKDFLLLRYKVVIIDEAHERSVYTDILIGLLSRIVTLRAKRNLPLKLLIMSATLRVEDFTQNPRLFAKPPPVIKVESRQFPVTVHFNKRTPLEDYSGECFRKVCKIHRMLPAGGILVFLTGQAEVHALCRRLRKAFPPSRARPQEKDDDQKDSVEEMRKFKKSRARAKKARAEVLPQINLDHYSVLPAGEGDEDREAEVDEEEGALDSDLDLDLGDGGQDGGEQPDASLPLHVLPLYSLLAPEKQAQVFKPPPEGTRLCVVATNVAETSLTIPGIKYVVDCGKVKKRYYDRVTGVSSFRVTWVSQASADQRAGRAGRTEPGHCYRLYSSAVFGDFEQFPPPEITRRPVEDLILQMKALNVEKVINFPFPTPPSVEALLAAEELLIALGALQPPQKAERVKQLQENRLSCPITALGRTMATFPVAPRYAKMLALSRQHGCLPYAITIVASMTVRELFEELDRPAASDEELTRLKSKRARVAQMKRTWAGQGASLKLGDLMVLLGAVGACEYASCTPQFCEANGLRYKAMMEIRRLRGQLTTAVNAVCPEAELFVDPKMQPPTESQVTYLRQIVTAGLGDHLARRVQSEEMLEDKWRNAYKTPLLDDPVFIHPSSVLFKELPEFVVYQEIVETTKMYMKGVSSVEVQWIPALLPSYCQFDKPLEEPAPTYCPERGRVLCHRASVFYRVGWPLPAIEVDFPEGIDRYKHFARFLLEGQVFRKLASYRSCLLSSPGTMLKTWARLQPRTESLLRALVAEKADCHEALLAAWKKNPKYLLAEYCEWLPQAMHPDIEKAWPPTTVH
UniProt Q7L7V1: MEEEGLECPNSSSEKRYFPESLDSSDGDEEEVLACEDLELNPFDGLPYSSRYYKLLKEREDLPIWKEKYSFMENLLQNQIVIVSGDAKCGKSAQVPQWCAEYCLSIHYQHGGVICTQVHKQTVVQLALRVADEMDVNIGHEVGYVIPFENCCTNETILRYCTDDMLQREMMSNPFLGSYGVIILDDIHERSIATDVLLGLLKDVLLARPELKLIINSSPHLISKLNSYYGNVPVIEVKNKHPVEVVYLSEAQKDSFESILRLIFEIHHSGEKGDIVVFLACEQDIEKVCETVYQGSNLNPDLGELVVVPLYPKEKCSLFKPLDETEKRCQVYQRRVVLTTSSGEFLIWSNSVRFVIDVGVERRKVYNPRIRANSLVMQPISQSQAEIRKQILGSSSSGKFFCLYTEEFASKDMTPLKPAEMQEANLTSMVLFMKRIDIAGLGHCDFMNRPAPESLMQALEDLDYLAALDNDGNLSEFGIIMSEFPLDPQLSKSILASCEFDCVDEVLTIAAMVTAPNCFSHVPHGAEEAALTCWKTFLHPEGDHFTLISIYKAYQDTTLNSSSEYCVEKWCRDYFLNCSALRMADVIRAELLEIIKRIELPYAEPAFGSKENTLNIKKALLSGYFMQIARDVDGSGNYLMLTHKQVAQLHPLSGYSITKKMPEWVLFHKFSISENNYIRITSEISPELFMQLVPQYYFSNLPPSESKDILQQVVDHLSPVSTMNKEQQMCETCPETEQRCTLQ
UniProt O95057: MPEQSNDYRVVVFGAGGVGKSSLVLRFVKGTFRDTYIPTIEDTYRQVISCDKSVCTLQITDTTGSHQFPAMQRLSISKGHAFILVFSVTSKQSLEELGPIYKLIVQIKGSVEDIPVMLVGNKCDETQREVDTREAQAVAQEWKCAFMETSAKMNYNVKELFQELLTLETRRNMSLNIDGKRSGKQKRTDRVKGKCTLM
UniProt Q9H4E7, whole entry, looked up: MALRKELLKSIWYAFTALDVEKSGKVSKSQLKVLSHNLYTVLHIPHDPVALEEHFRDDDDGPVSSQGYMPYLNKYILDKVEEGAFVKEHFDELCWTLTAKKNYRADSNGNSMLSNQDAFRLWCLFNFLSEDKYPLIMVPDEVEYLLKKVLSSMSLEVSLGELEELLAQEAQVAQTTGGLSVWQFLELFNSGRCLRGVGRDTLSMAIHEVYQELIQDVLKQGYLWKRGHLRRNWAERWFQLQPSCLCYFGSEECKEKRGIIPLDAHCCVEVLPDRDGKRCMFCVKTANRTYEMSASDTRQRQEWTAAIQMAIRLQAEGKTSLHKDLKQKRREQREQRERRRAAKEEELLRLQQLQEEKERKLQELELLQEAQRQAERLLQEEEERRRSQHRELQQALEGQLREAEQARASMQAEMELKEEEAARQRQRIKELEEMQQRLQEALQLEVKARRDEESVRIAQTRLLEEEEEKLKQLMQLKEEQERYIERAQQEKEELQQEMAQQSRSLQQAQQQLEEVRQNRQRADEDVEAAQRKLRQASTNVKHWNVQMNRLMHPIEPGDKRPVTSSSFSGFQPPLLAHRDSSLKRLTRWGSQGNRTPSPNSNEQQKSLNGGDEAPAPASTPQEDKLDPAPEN
UniProt Q9Y2R4: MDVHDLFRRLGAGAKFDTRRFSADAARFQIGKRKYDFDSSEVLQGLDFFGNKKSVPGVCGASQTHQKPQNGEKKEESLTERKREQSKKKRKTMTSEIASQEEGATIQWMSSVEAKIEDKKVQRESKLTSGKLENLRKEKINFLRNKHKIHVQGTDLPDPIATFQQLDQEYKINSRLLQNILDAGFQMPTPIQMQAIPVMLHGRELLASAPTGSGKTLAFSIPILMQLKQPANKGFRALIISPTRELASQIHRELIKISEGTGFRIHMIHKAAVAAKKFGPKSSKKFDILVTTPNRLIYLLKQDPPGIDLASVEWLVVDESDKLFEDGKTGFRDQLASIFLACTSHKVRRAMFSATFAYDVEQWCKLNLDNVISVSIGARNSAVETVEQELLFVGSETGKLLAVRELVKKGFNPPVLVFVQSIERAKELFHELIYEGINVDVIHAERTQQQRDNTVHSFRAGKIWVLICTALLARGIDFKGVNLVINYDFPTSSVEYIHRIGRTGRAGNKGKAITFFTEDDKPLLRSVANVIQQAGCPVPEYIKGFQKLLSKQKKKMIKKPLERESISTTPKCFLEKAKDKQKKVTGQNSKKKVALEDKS

Columns and labels:
Test in all cases: log2 fold change, soluble protein after heating vs DMSO (PISA); higher = thermal stabilisation; K562 cells, 10 uM, 30 min; active = over 0.2 and 3.5 SD of the protein, either way, in both replicates (recomputed)
[1] = compound: C[C@@H](Oc1cc(-c2cnn(C3CCNCC3)c2)cnc1N)c1c(Cl)ccc(F)c1Cl [crizotinib]
How it was run: (§1)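 K562 cells at 2×10^6 cells/mL were treated with 10 μM compound for 30 min. Aliquots were heated for 3 min across 48°C-58°C, pooled, and extracted in PBS with 0.5% NP-40 at 4°C; soluble protein was the supernatant after 21,000xg for 90 min. Soluble protein was quantified by TMTpro 16plex LC-MS/MS with channel sums equalised, and reported as log2 fold change in thermal stability against DMSO controls, with values from duplicates.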

[2] = compound: Cc1cc(Nc2cc(CN3CCOCC3)c3nc(C)c(Cc4ccc(Cl)cc4F)n3n2)n[nH]1 [gandotinib]
How it was run: as §1

[3] = compound: Cc1cc(SCc2sc(-c3ccc(C(F)(F)F)cc3)nc2C)ccc1OCC(=O)O
How it was run: as §1

[4] = compound: Cc1ccc(-n2nc(C(C)(C)C)cc2NC(=O)Nc2ccc(OCCN3CCOCC3)c3ccccc23)cc1 [doramapimod]
How it was run: as §1

[5] = compound: Cc1ccc(C(=O)N(CCCN)[C@@H](c2nc3cc(Cl)ccc3c(=O)n2Cc2ccccc2)C(C)C)cc1 [ispinesib]
How it was run: as §1

[6] = compound: Cc1ccc(NC(=O)c2ccc(CN3CC[C@H](N(C)C)C3)c(C(F)(F)F)c2)cc1Nc1nccc(-c2cncnc2)n1 [bafetinib]
How it was run: as §1

[7] = compound: Cc1cccc(CC(=O)N2CCc3c2ccc(-c2cn(C)c4ncnc(N)c24)c3F)n1
How it was run: as §1

[8] = compound: Cc1cn(-c2cc(NC(=O)c3ccc(C)c(Nc4nccc(-c5cccnc5)n4)c3)cc(C(F)(F)F)c2)cn1 [nilotinib]
How it was run: as §1

[9] = compound: Cc1nc(Nc2n[nH]c3c2CN(C(=O)N[C@H](CN(C)C)c2ccccc2)C3(C)C)c2sccc2n1
How it was run: as §1

[10] = compound: Cc1nc(Nc2ncc(C(=O)Nc3c(C)cccc3Cl)s2)cc(N2CCN(CCO)CC2)n1 [dasatinib]
How it was run: as §1

[11] = compound: Cc1ncc(-c2ccnc(Nc3ccc(S(C)(=O)=O)cc3)n2)n1C(C)C
How it was run: as §1

[12] = compound: Cn1cc(-c2ccc3nnc(C(F)(F)c4ccc5ncccc5c4)n3n2)cn1
How it was run: as §1

[13] = compound: FC(F)(F)c1ccc(/C=C/c2nc(COc3ccc(CCCCn4ccnn4)cc3)co2)cc1 [mubritinib]
How it was run: as §1

[14] = compound: Cc1cc(Nc2cc(N3CCN(C)CC3)nc(Sc3ccc(NC(=O)C4CC4)cc3)n2)n[nH]1 [tozasertib]
How it was run: as §1

[15] = compound: C[C@@H]1COCCN1C2=NC(=NC(=C2)C3(CC3)S(=O)(=O)C)C4=C5C=CNC5=CC=C4
How it was run: as §1

[16] = compound: C[C@H](Nc1ncnc2nc[nH]c12)c1cc2cccc(Cl)c2c(=O)n1-c1ccccc1 [duvelisib]
How it was run: as §1

[17] = compound: Cn1cncc1[C@@](N)(c1ccc(Cl)cc1)c1ccc2c(c1)c(-c1cccc(Cl)c1)cc(=O)n2C [tipifarnib]
How it was run: as §1

[18] = compound: C[C@H](C1=CC=C(C=C1)C(=O)NC2=C3C=CNC3=NC=C2)N
How it was run: as §1

[19] = compound: Cn1cc(-c2ccc3c(c2)CCN3C(=O)Cc2cccc(C(F)(F)F)c2)c2c(N)ncnc21
How it was run: as §1

[20] = compound: CS(=O)(=O)c1ccc(-c2cnc(N)c(C(=O)Nc3ccccc3)n2)cc1
How it was run: as §1

Measured: log2 fold change

DERPC (UniProt P0CG12)
inactive: [1] 0.029 | [2] 0.006 | [3] -0.113 | [4] -0.099 | [5] 0.07 | [6] -0.06 | [7] -0.193 | [8] 0.044 | [9] -0.04 | [10] 0.227 | [11] -0.126 | [12] 0.245 | [13] 0.049

DKK4 (UniProt Q9UBT3)
inactive: [2] 0.397 | [7] -0.745

DMTN isoform 2 (UniProt Q08495)
inactive: [1] -0.063 | [14] -0.273 | [4] 0.024 | [5] 0 | [6] -0.096 | [8] -0.028 | [9] -0.131 | [11] 0.092 | [12] -0.143

DFFA isoform 2 (UniProt O00273)
inactive: [1] -0.019 | [15] 0.219 | [16] -0.195 | [3] -0.003 | [4] 0.019 | [6] -0.058 | [8] 0.045 | [9] -0.088 | [10] 0 | [11] -0.006 | [13] -0.032

DENND1A isoform 6 (UniProt Q8TEH3)
inactive: [1] -0.231 | [4] 0.374 | [6] -0.086 | [17] -0.113

DET1 isoform 2 (UniProt Q7L5Y6)
inactive: [1] 0.069 | [18] 0.028 | [4] 0.036 | [5] 0.304 | [19] -0.075 | [12] 0.046 | [17] -0.127 | [13] 0.121

DDX10 (UniProt Q13206)
inactive: [16] -0.014 | [3] 0.117 | [10] -0.038

DHPS (UniProt M0R1T2)
inactive: [20] -0.152 | [6] 0.081

DHRSX (UniProt Q8N5I4)
inactive: [1] 0.171 | [18] -0.01 | [2] 0.08 | [4] -0.162 | [6] -0.009 | [7] -0.098 | [8] -0.034 | [9] 0.006 | [11] -0.167 | [19] 0.021 | [13] 0.03

DMTF1 (UniProt Q9Y222)
inactive: [20] -0.063 | [18] 0.106 | [16] -0.002 | [2] 0.02 | [14] 0.011 | [3] -0.11 | [7] 0.047 | [10] -0.056 | [19] -0.054 | [17] -0.128

DLC1 (UniProt Q96QB1)
inactive: [1] 0.046 | [15] 0.167 | [2] -0.073 | [4] -0.322 | [7] -0.231 | [8] 0.094 | [9] 0.148 | [11] -0.112 | [13] 0.043

DHX37 (UniProt Q8IY37)
inactive: [15] -0.037

DHX32 (UniProt Q7L7V1)
inactive: [15] -0.008 | [14] -0.139

DIRAS1 (UniProt O95057)
inactive: [14] -0.064

DHX35 (UniProt Q9H5Z1)
inactive: [15] -0.069 | [8] -0.088 | [9] 0.005 | [11] -0.115

DDB1 isoform 2 (UniProt Q16531)
inactive: [20] 0.009 | [15] 0.118 | [2] -0.228 | [6] -0.286 | [7] -0.094

DDX28 (UniProt Q9NUL7)
inactive: [18] 0.232 | [19] -0.105

DLK1 (UniProt P80370)
inactive: [1] -0.108 | [15] -0.151 | [18] -0.133 | [3] -0.058 | [4] 0.002 | [10] -0.012 | [19] -0.279

DEF6 (UniProt Q9H4E7)
inactive: [1] -0.366 | [15] -0.161 | [18] 0.053 | [14] -0.138 | [4] -0.035 | [5] 0.172 | [19] -0.217 | [12] 0 | [13] -0.214

DEPDC5 (UniProt O75140)
inactive: [1] 0.088 | [16] -0.109 | [3] 0.038 | [4] 0.203 | [10] 0.171

Reprinted from above (two entries):
DDX28 (UniProt Q9NUL7)
inactive: [18] 0.232 | [19] -0.105

DLK1 (UniProt P80370)
inactive: [1] -0.108 | [15] -0.151 | [18] -0.133 | [3] -0.058 | [4] 0.002 | [10] -0.012 | [19] -0.279

Next results follow.

DECR1 (UniProt E5RJD2)
inactive: [16] 0.379 | [2] 0.092 | [3] -0.032 | [6] -0.046 | [7] -0.12 | [8] -0.352 | [9] 0.001 | [10] -0.203 | [11] 0.082 | [17] 0.105 | [13] -0.008

DDX52 (UniProt Q9Y2R4)
inactive: [1] 0.018 | [18] 0.315 | [16] -0.193 | [3] 0.077 | [4] -0.243 | [5] 0 | [6] -0.039 | [10] 0.186 | [19] -0.172 | [12] -0.155
